{"source": "PubChem BioAssay AID624297", "about": "(National Center for Advancing Translational Sciences (NCATS), 2012)", "note": "Among all 340,000 compounds or so, about 6,200 (1.8%) were called active. The inconclusive results got no clear call from the source; some entries with a clear call stand among them for comparison. Calls come from the whole dose curve; as a rule, active = well fitted activation curve with a large enough effect; inconclusive = small, poorly fitted or top-dose-only effect; inactive = no such curve, though single readings can be large or run the other way. Potencies of inconclusive entries are doubtful fits and often do not repeat. Potency is the fitted concentration of half-maximal effect."}
{"test": "A quantitative high throughput screen for small molecules that induce DNA re-replication in SW480 colon adenocarcinoma cells; note: nearly all actives have a fitted effect of over 55% in size; for re-replication activation: % of control where 0% means no effect.", "conditions": "Hoechst DNA content imaging, 48 h; re-replication activation: at 46.1 µM (top of the series) unless noted", "procedure,_shortened": "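SW480 cells exposed to compounds for 48 hr at 37 C, 5% CO2, then Hoechst-stained 40 min. Nuclear DNA content imaged by fluorescence scanning (405 nm excitation, 500-530 nm emission); re-replication scored as increased high-intensity nuclei.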"}
{"smiles": "c1nc(NCC2(N3CCOCC3)CCCCC2)c2ccsc2n1", "Potency": "inactive"}
{"smiles": "CC1CCN(c2ccc3nnc(CCC(=O)N4CCCCC4)n3n2)CC1", "Potency": "inconclusive: 2.59 µM [activator, partial curve, poor fit]"}
{"smiles": "CCc1cc2c(cc3c(=O)n(CC(=O)NCCCN(CC)CC)nc(CC)n32)s1", "Potency": "inconclusive: 20.6 µM [activator, partial curve, poor fit]"}
{"smiles": "CC(=O)NC1C(c2nc3ccccc3s2)=C(c2ccccc2)C(=O)N1c1ccc(C)cc1", "note": "(stereo not drawn)", "Potency": "inconclusive: 29.1 µM [activator, partial curve, poor fit]"}
{"smiles": "O=c1cc(-c2ccccc2)oc2cc(O)c(O)c(O)c12", "Potency": "inconclusive: 1.64 µM [activator, partial curve, poor fit]"}
{"smiles": "Cc1ccc(NS(=O)(=O)c2cccc(C(=O)NCCc3c[nH]c4ccccc34)c2)c(C)c1", "Potency": "inconclusive: 32.6 µM [activator, single point]"}
{"smiles": "CCC(=O)NC(c1ccc(Cl)cc1Cl)c1ccc2cccnc2c1O", "note": "(stereo not drawn)", "Potency": "active: 0.517 µM"}
{"smiles": "N/C(COc1cccc(C(F)(F)F)c1)=N\\NC(=O)c1cccnc1Oc1ccccc1", "Potency": "inconclusive: 32.6 µM [activator, partial curve, poor fit]"}
{"smiles": "Cc1ccccc1CSCCNC(=O)Nc1ccccc1", "Potency": "inconclusive: 2.06 µM [activator, single point]"}
{"smiles": "CC(C)c1ccc(S(=O)(=O)N2CCC(C(=O)N3CCN(c4cccc(Cl)c4)CC3)CC2)cc1", "Potency": "inactive"}
{"smiles": "Cc1cc(-c2cccs2)c2c(N)c(C(=O)c3ccc4c(c3)OCO4)sc2n1", "Potency": "active: 1.3 µM"}
{"smiles": "O=C(CNC(=O)N1CC(=O)Nc2ccccc21)Nc1ccc(F)c(Cl)c1", "Potency": "inactive"}
{"smiles": "COC(=O)[C@]1(Cc2ccccc2)N[C@H](c2ccc(-c3ccc4c(c3)OCO4)cc2)[C@@H]2C(=O)N(C)C(=O)[C@@H]21", "Potency": "inconclusive: 23.1 µM [activator, single point]"}
{"smiles": "CN(C)C(=O)CCC(=O)N1CCCC(C(=O)c2ccc3c4c(cccc24)CC3)C1", "note": "(stereo not drawn)", "Potency": "inconclusive: 29.1 µM [activator, partial curve, poor fit]"}
{"smiles": "CCn1nc(C)c(CNC(=O)C2CCC(=O)N(CCc3ccc(Cl)cc3)C2)c1C", "note": "(stereo not drawn)", "Potency": "inconclusive: 4.11 µM [activator, single point]"}
{"smiles": "CCOC(=O)N1CCC(=NNc2ncc(C(F)(F)F)cc2Cl)CC1", "Potency": "inconclusive: 20.6 µM [activator, single point]"}
{"smiles": "CCCn1c(N)c(C(=O)COC(=O)/C=C/c2ccc(OC(F)F)c(OC)c2)c(=O)[nH]c1=O", "Potency": "inconclusive: 23.1 µM [activator, single point]"}
{"smiles": "O=C(COC(=O)c1ccccc1Nc1ccc(SC(F)F)cc1)NCc1ccco1", "Potency": "inactive"}
{"smiles": "O=C(OCc1ccco1)c1cccnc1", "Potency": "inconclusive: 0.517 µM [activator, full curve, poor fit]"}
{"smiles": "O=C(CCC(=O)Nc1ccccc1)NNS(=O)(=O)c1ccc(Cl)cc1", "Potency": "inconclusive: 7.31 µM [activator, partial curve, poor fit]"}
{"smiles": "CC(=O)N1c2ccccc2NC2=C(C(=O)CCC2)C1c1ccco1", "note": "(stereo not drawn)", "Potency": "inconclusive: 29.1 µM [activator, single point]"}
{"smiles": "COc1ccccc1-n1c2nc3ccccc3nc2c2c(=O)n(-c3cc(C)cc(C)c3)cnc21", "Potency": "inconclusive: 4.61 µM [activator, single point]"}
{"smiles": "C=CCNc1ncnc2c1cnn2-c1ccc(C)cc1C", "Potency": "inactive"}
{"smiles": "O=C(Nc1sc2c(c1-c1nc3ccccc3[nH]1)CCCC2)C1CCCC1", "re-replication activation": "inactive: -7.05% [at 9.22 µM]"}
{"smiles": "COc1ccc(CSc2nnc(-c3ccncc3)n2C)cc1F", "Potency": "inactive"}
{"smiles": "N=C1SCC(=O)N1c1ncc(Cc2ccc(F)cc2)s1", "Potency": "inactive"}
{"smiles": "CCCCn1c(N)c(N(CC(C)C)C(=O)CCNC(=O)c2ccc(Cl)cc2)c(=O)[nH]c1=O", "Potency": "inactive"}
{"smiles": "COc1ccc(CN(C)C(C)C(=O)NC2CCCc3ccccc32)cc1", "note": "(stereo not drawn)", "Potency": "inconclusive: 16.4 µM [activator, single point]"}
{"smiles": "Cc1cccc(NC(=O)/C=C/c2ccc([N+](=O)[O-])s2)c1", "Potency": "active: 6.51 µM"}
{"smiles": "O=C(OCCCCOC(=O)c1ccccc1)c1ccccc1", "Potency": "inconclusive: 13 µM [activator, single point]"}
{"smiles": "CNS(=O)(=O)c1cccc(C(=O)OCC(=O)N(Cc2ccccc2)C(C)(C)C)c1", "Potency": "inactive"}
{"smiles": "CC(C)OC(=O)C(C(=O)C(F)(F)F)c1cc(NS(=O)(=O)c2ccc3ccccc3c2)c2ccccc2c1O", "note": "(stereo not drawn)", "Potency": "inconclusive: 20.6 µM [activator, single point]"}
{"smiles": "CC(=O)N1CCN(S(=O)(=O)c2cccc(C(=O)NNC(=O)Cn3ccc(C(F)(F)F)n3)c2)CC1", "Potency": "inconclusive: 18.4 µM [activator, single point]"}
{"smiles": "COc1ccc(C(=O)CC(=O)c2ccccc2O)cc1", "Potency": "inactive"}
{"smiles": "O=C(COc1ccc(Cl)cc1Cl)N(C1CCCCC1)C1CCS(=O)(=O)C1", "note": "(stereo not drawn)", "Potency": "inconclusive: 8.2 µM [activator, partial curve, poor fit]"}
{"smiles": "COC(=O)C[C@H]1c2cc(F)ccc2S(=O)(=O)N1c1ccccc1", "Potency": "inactive"}
{"smiles": "COCCNC(=O)CCSCc1ccccc1F", "Potency": "inconclusive: 20.6 µM [activator, single point]"}
{"smiles": "Cc1ccc(/C=N/NC(=O)NN(C)c2ncc(C(F)(F)F)cc2Cl)cc1", "Potency": "inactive"}
{"smiles": "O=c1/c(=C/c2ccc([N+](=O)[O-])cc2)sc2n1CCCN=2", "Potency": "inconclusive: 23.1 µM [activator, partial curve, poor fit]"}
{"smiles": "Cc1cccc(N2CCN(C(=O)c3cn(C)c(=O)c4c3c3ccccc3n4C)CC2)c1C", "Potency": "inconclusive: 17.8 µM [activator, single point]"}
{"smiles": "Cc1ccc(CN2CCN(/N=C/c3ccc(C)s3)CC2)c(C)c1", "Potency": "active: 16.4 µM"}
{"smiles": "Cc1nc(Nc2cccc(C(F)(F)F)c2)nc2c1C(=O)CC(C)C2", "note": "(stereo not drawn)", "Potency": "inactive"}
{"smiles": "O=C(CN1CCCCC1)N1CCN(c2ccccc2)CC1", "Potency": "inactive"}
{"smiles": "Cc1c(C(=O)N2CCC(C(N)=O)CC2)oc2ccc(Br)cc12", "Potency": "inconclusive: 29.1 µM [activator, partial curve, poor fit]"}
{"smiles": "O=C(c1ccccc1NS(=O)(=O)c1cccc([N+](=O)[O-])c1)N1CCCC1", "Potency": "inactive"}
{"smiles": "COc1ccc(NC(C)=O)cc1NS(=O)(=O)c1ccc2c(c1)OCCO2", "Potency": "inconclusive: 29.1 µM [activator, single point]"}
{"smiles": "COCCCNC(=O)c1c(N)n(/N=C/c2ccccn2)c2nc3ccccc3nc12", "Potency": "inconclusive: 2.31 µM [activator, full curve, poor fit]"}
{"smiles": "Nn1c(SCC(=O)NCCc2ccc(S(N)(=O)=O)cc2)nnc1C1CCCCC1", "Potency": "inconclusive: 3.66 µM [activator, single point]"}
{"smiles": "Cc1ccc(NS(=O)(=O)c2ccc(NC(=O)C(C)Sc3ccc(Cl)cc3)cc2)c(C)c1", "note": "(stereo not drawn)", "Potency": "inconclusive: 20.6 µM [activator, single point]"}
{"smiles": "O=c1cc(-c2ccc(O)c(O)c2)oc2c1ccc1ccccc12", "Potency": "inconclusive: 1.46 µM [activator, partial curve, poor fit]"}
{"smiles": "O=C(Nc1ccc(Br)cn1)c1ccc(Br)s1", "Potency": "active: 8.2 µM"}
{"smiles": "CCC(NC(=O)c1ccccc1NC(=O)c1ccccc1)C(=O)OC", "note": "(stereo not drawn)", "Potency": "inconclusive: 18.4 µM [activator, partial curve, poor fit]"}
{"smiles": "CCOc1ccc(C(=O)C(CCC(CN(C)C)C(=O)c2ccc(OCC)cc2)CN(C)C)cc1", "note": "(stereo not drawn)", "Potency": "active: 3.66 µM"}
{"smiles": "COCCCn1c(=S)[nH]c2sc3c(c2c1=O)CCCC3", "Potency": "inconclusive: 29.1 µM [activator, single point]"}
{"smiles": "NCCSc1c(-c2ccc(F)cc2)[nH]c2ccccc12", "Potency": "inactive"}
{"smiles": "CC(C)C[C@H]1CNC(=S)N1CC1CCCN1C[C@H](Cc1ccccc1)N1C[C@H](Cc2ccc(O)cc2)N(CC2CCCCCC2)C1=S", "note": "(stereo partly drawn)", "Potency": "inconclusive: 32.6 µM [activator, partial curve, poor fit]"}
{"smiles": "Cc1ccc(OCC(=O)NCCNC(=O)c2cnccn2)cc1", "Potency": "inactive"}
{"smiles": "CCc1noc(C)c1C(=O)N1CCN(S(=O)(=O)c2cc(C)ccc2C)CC1", "Potency": "inconclusive: 20.6 µM [activator, partial curve, poor fit]"}
{"smiles": "CSc1ccccc1NC(=O)COc1ccc(Cl)cc1Cl", "Potency": "inconclusive: 1.16 µM [activator, full curve, poor fit]"}
{"smiles": "CCCCOC(=O)Nc1nc2ccc([N+](=O)[O-])cc2s1", "Potency": "inactive"}
{"smiles": "CC1=C(C(=O)Nc2cccc(C(=O)N3CCN(c4cccc(C(F)(F)F)c4)CC3)c2)SCCO1", "Potency": "inconclusive: 10.3 µM [activator, partial curve, poor fit]"}
{"smiles": "O=C1C(=O)N(Cc2cccnc2)C(c2ccc(Br)cc2)/C1=C(\\O)c1ccc2c(c1)OCCO2", "note": "(stereo not drawn)", "Potency": "inconclusive: 23.1 µM [activator, single point]"}
{"smiles": "CCOC(=O)N1CCN(C(=O)c2ccc3nc(SCc4ccc(F)cc4)n(C)c3c2)CC1", "re-replication activation": "inactive: -3.67% [at 9.22 µM]"}
{"smiles": "O=C(CSc1nc(Nc2ccccc2)nc(N2CCOCC2)n1)N1CCc2ccccc21", "Potency": "inconclusive: 29.1 µM [activator, single point]"}
{"smiles": "Cc1ccc2cc(CN(CCc3ccccc3)C(=S)NCCCN(C)C)c(=O)[nH]c2c1", "Potency": "inconclusive: 29.1 µM [activator, single point]"}
{"smiles": "CC1CN(C(=O)c2ccc(CNS(=O)(=O)c3cccc(Cl)c3)cc2)CC(C)O1", "note": "(stereo not drawn)", "Potency": "inactive"}
{"smiles": "CCN(CC)c1ccc(S(=O)(=O)N2CCOCC2)cc1NC(=O)Cn1nc(C)c([N+](=O)[O-])c1C", "Potency": "inactive"}
{"smiles": "COc1ccccc1N1CCN(/N=C/c2ccc(O)cc2O)CC1", "re-replication activation": "inconclusive: 54.4% [activator]"}
